These results are taken from PMC8571373.

Assay [1] has as its target EGFR (epidermal growth factor receptor, ErbB-1/HER-1), in PLC/PRF/5-STEAP3 cells (human (endogenous in PLC/PRF/5)) (UniProt P00533). Put plainly: co-IP; cell lysates (PLC/PRF/5-STEAP3; HEK293) incubated with primary antibodies overnight at 4 °C, Crosslink Magnetic IP/Co-IP Kit, then western blot.
For assay [2], the target named is EGFR (epidermal growth factor receptor, ErbB-1/HER-1), in HEK293 cells (human (endogenous in HEK293)) (UniProt P00533). Described as above.

These are yes or no findings as the source states them, for the method shown. In cells and extracts the contact can be indirect. Some binding calls cover weakened binding; strength is not graded here.

B1: STEAP3 (Six-transmembrane epithelial antigen of the prostate 3), stably overexpressed in PLC/PRF/5-STEAP3 cells (protein, UniProt Q658P3 1-488)
chain: MPEEMDKPLISLHLVDSDSSLAKVPDEAPKVGILGSGDFARSLATRLVGSGFKVVVGSRNPKRTARLFPSAAQVTFQEEAVSSPEVIFVAVFREHYSSLCSLSDQLAGKILVDVSNPTEQEHLQHRESNAEYLASLFPTCTVVKAFNVISAWTLQAGPRDGNRQVPICGDQPEAKRAVSEMALAMGFMPVDMGSLASAWEVEAMPLRLLPAWKVPTLLALGLFVCFYAYNFVRDVLQPYVQESQNKFFKLPVSVVNTTLPCVAYVLLSLVYLPGVLAAALQLRRGTKYQRFPDWLDHWLQHRKQIGLLSFFCAALHALYSFCLPLRRAHRYDLVNLAVKQVLANKSHLWVEEEVWRMEIYLSLGVLALGTLSLLAVTSLPSIANSLNWREFSFVQSSLGFVALVLSTLHTLTYGWTRAFEESRYKFYLPPTFTLTLLVPCVVILAKALFLLPCISRRLARIRRGWERESTIKFTLPTDHALAEKTSHV
B1: the binding entry in assay [1] is “binds”.

B2: STEAP3 in HEK293 cells (protein, UniProt Q658P3 1-488)
chain: MPEEMDKPLISLHLVDSDSSLAKVPDEAPKVGILGSGDFARSLATRLVGSGFKVVVGSRNPKRTARLFPSAAQVTFQEEAVSSPEVIFVAVFREHYSSLCSLSDQLAGKILVDVSNPTEQEHLQHRESNAEYLASLFPTCTVVKAFNVISAWTLQAGPRDGNRQVPICGDQPEAKRAVSEMALAMGFMPVDMGSLASAWEVEAMPLRLLPAWKVPTLLALGLFVCFYAYNFVRDVLQPYVQESQNKFFKLPVSVVNTTLPCVAYVLLSLVYLPGVLAAALQLRRGTKYQRFPDWLDHWLQHRKQIGLLSFFCAALHALYSFCLPLRRAHRYDLVNLAVKQVLANKSHLWVEEEVWRMEIYLSLGVLALGTLSLLAVTSLPSIANSLNWREFSFVQSSLGFVALVLSTLHTLTYGWTRAFEESRYKFYLPPTFTLTLLVPCVVILAKALFLLPCISRRLARIRRGWERESTIKFTLPTDHALAEKTSHV
Turning to B2, the binding entry in assay [2] is recorded as “binds”.
